The values that follow come from PubChem BioAssay AID493014 (National Center for Advancing Translational Sciences (NCATS), 2011).

Molecules are shown by their SMILES. The list shows a part of the results. These are further read-outs of the screen, such as a control signal, another cell line or another target. No call is given for them. The list favours compounds with an active or inconclusive main result. Potencies come from curve fits of mixed quality, noted in brackets.

A short description of the assay: qHTS Assay to Find Inhibitors of Chronic Active B-Cell Receptor Signaling. Conditions: ABC-DLBCL IkBa-CBG/CBR reporter, luminescence ratio (green luciferase fused to IkBa over red control in TMD8 lymphoma cells), 4 h. The method in brief: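 Compounds up to 46 uM were incubated four hours with TMD8 cells whose green CBG68 luciferase is fused to IkappaBalpha; red CBR luminescence normalised the signal, and concentration-effect curves were fitted to fusion, red and ratio data.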

Setting [1] is: measured here: CBR red luminescence, cell number.
The mark [2] stands for this setting: measured here: IkBa-CBG green luminescence.

For orientation: AC50 means the midpoint of the concentration-response curve, whichever way the signal moves. As for `CN(C)c1ccc(/C=N/NC(=O)c2cc(-c3ccc4c(c3)OCO4)n[nH]2)cc1`, under setting [1], the AC50 was 31.6 µM [rising, single point].

Take `Cc1c(C(=O)O)sc2nc(/C=C/c3ccccc3OC(F)F)[nH]c(=O)c12`: the AC50 under setting [1] is 1.41 µM [falling, full curve].

On to `CCOC(=O)COc1ccc(/C=C2/SC(=Nc3ccccc3)N(Cc3cccnc3)C2=O)cc1OC`, for which the AC50 under setting [1] is 18.4 µM [rising, partial curve].

`CCCC(O)(CCC)C(=O)NN(C(=O)CCl)c1cccc(C)c1`: the AC50 under setting [1] was 20.6 µM [falling, single point].

As to `Cc1ccc(NC(=S)NCCSc2ccc(Cl)cc2)c(C)c1`, the concentration at half-maximal activity (AC50) under setting [1] was 23.1 µM [falling, single point].

For the molecule `C=CCOc1cccc(NC(=O)c2ccccc2SC)c1`, under setting [1], the concentration at half-maximal activity (AC50) is 31.6 µM [rising, single point].

Take `CC(C)N1CCC2(CC1)N=C(c1ccc3c(c1)OCO3)CC(c1cc(Cl)ccc1O)N2` (configuration not stated): under setting [1], the AC50 was 18.4 µM [falling, single point].

Take `O=C(CSc1nc(=O)n(CCN2CCOCC2)c2c1CCCC2)Nc1cccc([N+](=O)[O-])c1`: the concentration at half-maximal activity (AC50) under setting [1] is 7.31 µM [rising, partial curve, poor fit].

Consider `Cc1ccsc1/C=C1\Oc2cc(OCC(=O)c3ccccc3)ccc2C1=O`, for which, under setting [1], the AC50 was 2.59 µM [rising, full curve].

Turning to `Cc1ccc(NS(=O)(=O)c2cc(C(=O)Nc3cccc(N(C)S(C)(=O)=O)c3)ccc2C)c(C)c1`, the concentration at half-maximal activity (AC50) under setting [1] is 18.4 µM [falling, single point].

For the molecule `COc1ccc(/C(N)=N/OC(=O)CCc2ccccc2)cc1OC`, under setting [1], the half-maximal activity concentration (AC50) was 20 µM [rising, single point].

Turning to `NS(=O)(=O)c1cccc(NC(=O)c2cncc(Br)c2)c1`, under setting [1], the AC50 is 17.8 µM [falling, single point].

For `O=C(COC(=O)CNC(=O)C1CCCCC1)Nc1cc(C(F)(F)F)ccc1Cl`, under setting [1], the AC50 is 29.1 µM [rising, single point].

Take `CCc1cc(=O)oc2cc(OCC(=O)OC)c(Cl)cc12`: the AC50 under setting [1] was 7.31 µM [rising, single point].

For the molecule `Cc1csc(N/N=C/c2ccc(O)c([N+](=O)[O-])c2)n1`, under setting [1], the AC50 was 11.6 µM [falling, partial curve, poor fit].

On to `Cc1cc2ccccn2c1C(=O)c1ccccc1Br`, for which the AC50 under setting [1] was 0.501 µM [rising, full curve, poor fit].

For `COn1c(=O)c(-c2ccc(F)cc2)[n+]([O-])c2ccccc21`, the AC50 under setting [1] is 6.31 µM [rising, single point].

For the molecule `COc1cccc(NC(=O)C2Cc3ccccc3CN2C(=O)c2ccco2)c1` (configuration not stated), under setting [1], the AC50 is 0.501 µM [falling, partial curve].

Turning to `Cc1ccc(C(=O)OCn2ncc(Cl)c(Cl)c2=O)cc1`, the concentration at half-maximal activity (AC50) reads like this: under setting [1], 4.47 µM [falling, full curve, poor fit]; under setting [2], 11.2 µM [rising, partial curve, poor fit].

With `COc1ccc(Cl)cc1NC(=O)c1c(NCc2cccs2)sc2c1CCCC2`, under setting [1], the AC50 was 4.47 µM [rising, full curve, poor fit].

For `O=Cc1ccccc1OCCOc1ccc([N+](=O)[O-])cc1`, under setting [1], the half-maximal activity concentration (AC50) is 35.5 µM [rising, single point].

`O=C(O)c1ccc(NC(=O)c2cn(-c3ccccc3)nc2-c2ccccc2)cc1`: the half-maximal activity concentration (AC50) under setting [1] is 25.1 µM [falling, single point].

In the case of `C/C(=N\NC(=O)c1ccc(Br)cc1)c1ccccc1`, the AC50 under setting [1] is 11.2 µM [falling, single point].

On to `CCN(Cc1ccc(OC)c(F)c1)C(=O)c1oc2ccccc2c1COC`, for which, under setting [1], the concentration at half-maximal activity (AC50) is 7.94 µM [rising, partial curve, poor fit].

As for `CC(C)(C)N1C(=O)[C@H]2[C@@H](c3ccc(Br)cc3)N3C(=O)N(c4ccc(Br)cc4)C(=O)[C@@]3(Cc3ccccc3)[C@H]2C1=O`, under setting [1], the AC50 is 2.51 µM [falling, full curve, poor fit].

For `CCC1SC(=Nc2cccc(C)c2)NC1=O` (configuration not stated), the AC50 under setting [1] was 25.1 µM [falling, partial curve].

`CN(Cc1ccccc1Cl)C(=O)c1cnccc1C(F)(F)F`: the AC50 under setting [1] was 5.01 µM [rising, full curve, poor fit].

`CCN(CC)S(=O)(=O)c1ccc(/C=C/C(=O)Nc2ccc(F)cc2F)cc1`: the half-maximal activity concentration (AC50) under setting [1] is 23.1 µM [falling, single point].

As to `CCOc1cc2c(C#N)c(N3CCNCC3)nc(N)c2c(N)n1`, the half-maximal activity concentration (AC50) under setting [1] was 6.51 µM [falling, single point].

Consider `Cc1cc(C(=O)COc2ccc(F)cc2Br)c(C)n1C1CC1`, for which the half-maximal activity concentration (AC50) under setting [1] is 29.1 µM [rising, partial curve, poor fit].

On to `COc1ccc(Oc2ccc(/C=C/C(=O)c3ccc(O)cc3)cc2[N+](=O)[O-])cc1`, for which, under setting [1], the AC50 is 20.6 µM [falling, single point].

Turning to `Cc1ccc2nc(-c3ccccc3)c(-c3ccccc3)nc2c1`, under setting [1], the AC50 was 10 µM [rising, partial curve].

For the molecule `COC(=O)Cn1cc(/C=C/[N+](=O)[O-])c2ccccc21`, the half-maximal activity concentration (AC50) by setting is: under setting [1], 8.91 µM [falling, partial curve]; under setting [2], 35.5 µM [falling, single point].

For `O=c1cc(CN2CCN(C/C=C/c3ccccc3)CC2)c2cc(O)ccc2o1`, under setting [1], the AC50 is 17.8 µM [falling, single point].

Consider `O=S(=O)(c1ccc(F)cc1)N1CCn2c(nc3ccccc32)C1`, for which the half-maximal activity concentration (AC50) under setting [1] was 2.59 µM [falling, full curve].

Turning to `Cc1ccc(NC(=O)C2CSC3(C)CCC(=O)N23)cc1S(=O)(=O)N1CCOCC1` (configuration not stated), the AC50 under setting [1] is 23.1 µM [rising, partial curve, poor fit].

`CC(C)(C)c1ccc(C(=O)NCC(=O)OCc2ccc([N+](=O)[O-])cc2)cc1`: the concentration at half-maximal activity (AC50) under setting [1] was 13 µM [falling, partial curve, poor fit].

Turning to `COc1cccc(-n2nnc3c(=O)n(Cc4ccccc4F)cnc32)c1`, the AC50 under setting [1] is 5.62 µM [rising, partial curve, poor fit].

In the case of `CCOc1ccc(-c2c(C(=O)N/N=C/C3CC=CCC3)nnn2-c2nonc2N)cc1` (configuration not stated), the concentration at half-maximal activity (AC50) under setting [1] was 6.31 µM [rising, single point].

As to `O=S(=O)(c1cccc(-c2nc3ccccc3s2)c1)N1CCCC1`, the AC50 under setting [1] was 29.1 µM [falling, single point].

Turning to `CCCCC/C=C\C[C@H](O)/C=C/c1cccc(C[C@H](O)CCCCO)n1`, under setting [1], the half-maximal activity concentration (AC50) was 15.8 µM [falling, partial curve, poor fit].

`Cc1cc(C)c2nc(NNC(=O)c3ccc(S(=O)(=O)N4CCc5ccccc5C4)cc3)sc2c1`: the AC50 under setting [1] was 5.8 µM [rising, full curve].

For `Cc1cccc(NC(=O)N2CCCC2C(=O)NCc2ccccc2)c1` (configuration not stated), the AC50 under setting [1] was 17.8 µM [rising, single point].

Regarding `O=c1c2ccccc2cnn1CCOc1ccccc1`, the AC50 under setting [1] was 14.6 µM [falling, partial curve, poor fit].

On to `O=C(c1ccc(Cl)c(Cl)c1)N1CCC(=O)N(C(COCc2cccc(C(F)(F)F)c2)Cc2ccccc2)CC1` (configuration not stated), for which the half-maximal activity concentration (AC50) under setting [1] is 16.4 µM [falling, single point].

As for `CCCS/C(N)=N/N=C/c1cc(C)ccc1O`, the concentration at half-maximal activity (AC50) under setting [1] was 0.184 µM [rising, full curve, poor fit].

`Cc1cc(C(=O)NC2CCC(C)CC2)c(C)o1` (configuration not stated): under setting [1], the AC50 is 25.1 µM [rising, single point].

On to `COc1ccc(-n2c(SCC(=O)Nc3ccc(NC(C)=O)cc3)nc3c([nH]c4ccccc43)c2=O)cc1OC`, for which, under setting [2], the AC50 is 14.1 µM [falling, partial curve, poor fit].

In the case of `Clc1ccc(CN2C3=NCCN3c3ccccc32)cc1Cl`, the AC50 under setting [1] is 22.4 µM [falling, single point].

Regarding `O=C(N/N=C/c1cccs1)[C@H]1C[C@@H]1c1ccccc1`, the AC50 under setting [1] is 0.461 µM [rising, full curve, poor fit].

In the case of `O=[N+]([O-])c1ccc2nc(-c3ccccc3)cc(-c3ccccc3)c2c1`, the half-maximal activity concentration (AC50) under setting [1] is 16.4 µM [rising, single point].

With `CCSc1nc(-c2ccccc2)nc(C(Cl)Cl)n1`, the AC50 under setting [1] was 14.6 µM [rising, partial curve] and the AC50 under setting [2] was 20.6 µM [falling, partial curve, poor fit].

Regarding `COCCN=C(NS(=O)(=O)c1cccs1)c1ccccc1Cl`, the AC50 under setting [1] was 29.1 µM [rising, single point].

In the case of `Cc1nc(SCCOc2ccc(F)cc2)c2ccccc2n1`, the half-maximal activity concentration (AC50) under setting [1] is 2 µM [rising, partial curve, poor fit].

In the case of `CC(=O)c1cccn1S(=O)(=O)c1ccccc1`, the concentration at half-maximal activity (AC50) under setting [1] is 20 µM [rising, partial curve, poor fit].

For the molecule `O=C(NCCCN1CCCC1=O)C1CCN(S(=O)(=O)c2cc(C(F)(F)F)ccc2Cl)CC1`, the half-maximal activity concentration (AC50) is 20.6 µM [rising, partial curve] under setting [1] and 20.6 µM [falling, partial curve, poor fit] under setting [2].

`Cc1ccc(N=c2sc(C)c(C)n2C)cc1`: under setting [1], the half-maximal activity concentration (AC50) was 23.1 µM [rising, single point].

As for `O=C(COc1ccc(S(=O)(=O)N2CCCC2)cc1Cl)NC1CC1`, under setting [1], the AC50 was 16.4 µM [rising, single point].

For `CN1C(=O)C(O)(CC(=O)c2ccccn2)c2cc(Br)ccc21` (configuration not stated), the half-maximal activity concentration (AC50) reads like this: under setting [1], 25.9 µM [rising, single point]; under setting [2], 29.1 µM [falling, single point].

For the molecule `CC(=O)c1cc(C#N)c(N2CCN(c3ccccc3)CC2)nc1C`, under setting [1], the AC50 is 4.47 µM [rising, partial curve, poor fit].

As for `CCOc1ccc(NC(=O)CN(C)C(=O)C2CSC3(C)CCC(=O)N23)cc1OCC` (configuration not stated), the AC50 under setting [1] is 29.1 µM [rising, single point].

On to `O=C(/C=C/C=C/c1ccc2c(c1)OCO2)N1CCCCC1`, for which the half-maximal activity concentration (AC50) under setting [1] is 20.6 µM [falling, partial curve, poor fit].
